Reference: PubChem BioAssay AID504804 (Drosophila RNAi Screening Center, 2011)
The deposit covers about 19,000 reagents; shown is an unselected part of those with a known target gene and a result. Over the whole deposit, 47 (0.25%) are marked active. 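Signals are raw, not normalised; exact z-scores behind calls not deposited; actives needed confirmation, so some wells reaching 2 SD are inactive.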 A number with no mark means an inactive call. The numbers tell different reagents against one gene apart. Names joined by + are all predicted targets of the reagent.

Assay: 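dsRNAs that improve Kc cell survival under doxorubicin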 (primary screen)
Cells: Drosophila Kc cells
Reagents: long dsRNA against Drosophila genes, 0.5 µg dsRNA per well
Duration: 96 h (48 h knock-down, then 48 h drug)
Treatment: doxorubicin 5 µg/ml for 48 h, added 48 h after dsRNA
Measured: 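Luminescent ATP counts per replicate, not normalised, reflecting viable cells after 48 h dsRNA knock-down followed by 48 h of 5 µg/ml doxorubicin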
Direction: raw ATP luminescence: higher = more viable cells, protection from doxorubicin
Rule for the call: 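Active when both duplicate wells lie at least 2 SD above the plate mean and protection is confirmed by rescreening and independent dsRNAs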

The first 5 entries, ahead of the listing:
no.	gene	dsRNA no.	raw ATP luminescence, replicate 1	raw ATP luminescence, replicate 2
1	Gat (GABA transporter)	1	52320	59890
2	Ssl (Suppressor of Stellate-like)	1	62890	52443
3	Vsx2 (Visual system homeobox 2)	1	1.79e5	1.66e5
4	Vsx2 (Visual system homeobox 2)	2	16190	22170
5	Vsx2 (Visual system homeobox 2)	3	26160	42480

The listing, from the first entry:
no.	gene	dsRNA no.	raw ATP luminescence, replicate 1	raw ATP luminescence, replicate 2
1	Gat (GABA transporter)	1	52320	59890
2	Ssl (Suppressor of Stellate-like)	1	62890	52443
3	Vsx2 (Visual system homeobox 2)	1	1.79e5	1.66e5
4	Vsx2 (Visual system homeobox 2)	2	16190	22170
5	Vsx2 (Visual system homeobox 2)	3	26160	42480
6	Vsx2 (Visual system homeobox 2)	4	23960	35580
7	CG13460	1	65813	70210
8	Lcp65Ad	1	91387	89910
9	Dif (Dorsal-related immunity factor)	1	81717	81150
10	lili (lilipod)	1	39523	38500
11	Alp2 (Alkaline phosphatase 2)	1	50757	36157
12	Rfk (Riboflavin kinase)	1	53850	55350
13	CG7512	1	63270	68517
14	CG9294	1	72573	71353
15	Hsp70Aa + Hsp70Ab	1	3.14e5	3.09e5
16	CG8851	1	22460	34887
17	Lamtor1 (Late endosomal/lysosomal adaptor, MAPK and MTOR activator 1)	1	72573	66283
18	Glut1 (Glucose transporter 1)	1	96187	87953
19	Glut1 (Glucose transporter 1)	2	68707	68530
20	Anp (Andropin)	1	31370	37230
21	CG42697	1	1.49e5	99930
22	Aasdh (Aminoadipate-semialdehyde dehydrogenase)	1	44180	60940
23	CG5225	1	79510	78610
24	CG5412	1	39950	50927
25	Ugt36A1 (UDP-glycosyltransferase family 36 member A1)	1	23903	31520
26	Obp47a (Odorant-binding protein 47a)	1	44567	81800
27	jigr1 (jing interacting gene regulatory 1)	1	2.39e5	2.15e5
28	jigr1 (jing interacting gene regulatory 1)	2	67130	53810
29	tinc (tincar)	1	49880	48900
30	tinc (tincar)	2	48120	46300
31	tinc (tincar)	3	33050	34580
32	tinc (tincar)	4	58780	56580
33	omd (oocyte maintenance defects)	1	34213	31170
34	CG12439	1	47077	68523
35	CG32137	1	66393	60587
36	CG32137	2	60773	60970
37	gnu (giant nuclei)	1	16250	21523
38	CG33061	1	35837	33797
39	PolH (DNA polymerase eta)	1	21020	19123
40	RpS26 (Ribosomal protein S26)	1	27303	38063
41	mAcon1 (Mitochondrial aconitase 1)	1	77967	76200
42	Hug (Hugin)	1	48013	65197
43	Ibf2 (Insulator binding factor 2)	1	38007	31927
44	Ptp99A (Protein tyrosine phosphatase 99A)	1	1.68e5	2.33e5
45	Ptp99A (Protein tyrosine phosphatase 99A)	2	2.32e5	2.33e5
46	Ptp99A (Protein tyrosine phosphatase 99A)	3	42980	41490
47	Ptp99A (Protein tyrosine phosphatase 99A)	4	37550	39500
48	Ptp99A (Protein tyrosine phosphatase 99A)	5	46820	36740
49	OS9 (Olfactory-specific 9)	1	60343	63513
50	Obp19a (Odorant-binding protein 19a)	1	3.18e5	3.09e5
51	ppk8 (pickpocket 8)	1	2.48e5	2.41e5
52	gry (gryzun)	1	1.34e5	1.55e5
53	gry (gryzun)	2	39863	37050
54	Parp1 (Poly-(ADP-ribose) polymerase 1)	1	1.76e5	1.22e5
55	CG11019 (retired record)	1	46453	55320
56	Mst27D (Male specific transcript 27D)	1	2.86e5	2.66e5
57	CG17097	1	46400	83130
58	Alms1a (Alstrom syndrome 1a)	1	36040	38310
59	CG1418	1	39850	86620
60	nod (no distributive disjunction)	1	2.07e5	2.18e5
61	CG34165	1	28203	24110
62	Lon (Lon protease)	1	25280	20963
63	tea (telomere ends associated)	1	81030	59657
64	tea (telomere ends associated)	2	45803	81580
65	ACXC (Adenylyl cyclase X C)	1	68690	81673
66	CdGAPr (Cd GTPase activating protein-related)	1	22977	24230
67	CG32407	1	57483	76017
68	CG15136	1	66480	76367
69	CG10841	1	49210	34820
70	Ubr3 (Ubr3 ubiquitin ligase)	1	30710	38620
71	eco (Establishment of cohesion)	1	40717	39780
72	RpL36A (Ribosomal protein L36A)	1	34763	39850
73	CG18063	1	78057	73507
74	CG34231	1	73313	1.01e5
75	Fpgs2 (Folylpolyglutamate synthase 2)	1	32950	32663
76	UQCR-Q (Ubiquinol-cytochrome c reductase ubiquinone-binding protein)	1	44463	43987
77	CG1850	1	48630	73243
78	PK2-R2 (Pyrokinin 2 receptor 2)	1	88910	88140
79	Mys45A (Mystery 45A)	1	45447	47723
80	sky (skywalker)	1	88640	69083
81	sky (skywalker)	2	93490	62483
82	sky (skywalker)	3	59237	61730
83	Ptp69D (Protein tyrosine phosphatase 69D)	1	83310	54857
84	CG5103	1	51287	43653
